PubChem BioAssay AID1259424 – University of Nebraska Medical Center, 2018
Aim: 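Find knockdowns that reproduce the expression shifts seen after KSR1 loss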 (primary screen). Cells: human HCT116 colon cancer cells. Knock-down reagent: siRNA pool against human genes, 50 nM. Measurement: 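Log2 levels of six mRNAs (branched-DNA multiplex), adjusted by two reference genes and the non-targeting median, then scored against the average KSR1 knockdown pattern as Pearson r and euclidean distance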. Direction: mean correlation with KSR1 profile: higher = expression change more like KSR1 knockdown.
In all, the deposit lists about 14,000 reagents; shown is a random part of them. 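Higher correlation or smaller distance means closer resemblance to KSR1 loss; control wells, including KSR1 knockdowns, recur on many plates.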 Not all columns of the deposit are shown. No sequences are given here. Not given: the time to read-out.

GPD1 [SID363996196]
- mean correlation with KSR1 profile: -0.558

CPN2 [SID364005631]
- mean correlation with KSR1 profile: 0.408

VPS53 [SID364000946]
- mean correlation with KSR1 profile: -0.236

UBAP1 [SID364000170]
- mean correlation with KSR1 profile: -0.313

VPS13D [SID363999453]
- mean correlation with KSR1 profile: -0.338

IFT88 [SID363997325]
- mean correlation with KSR1 profile: 0.537

SNX25 [SID364003722]
- mean correlation with KSR1 profile: 0.103

RAPGEF1 [SID363996228]
- mean correlation with KSR1 profile: 0.629

SLC19A4P [SID364001519]
- mean correlation with KSR1 profile: -0.292

ADAMTS3 [SID363998681]
- mean correlation with KSR1 profile: -0.483

TOMM70 [SID363999127]
- mean correlation with KSR1 profile: -0.477

HECW1 [SID363999274]
- mean correlation with KSR1 profile: -0.153

NPFFR1 [SID364002372]
- mean correlation with KSR1 profile: 0.26

SLC16A8 [SID363998464]
- mean correlation with KSR1 profile: -0.3

ZKSCAN1 [SID364005318]
- mean correlation with KSR1 profile: -0.372

BBOX1 [SID363995039]
- mean correlation with KSR1 profile: 0.144

TNKS [SID363994814]
- mean correlation with KSR1 profile: -0.489

MS4A1 [SID364002241]
- mean correlation with KSR1 profile: -0.26

CDC40 [SID363999696]
- mean correlation with KSR1 profile: -0.116

FMO1 [SID363993231]
- mean correlation with KSR1 profile: -0.537

CEP57 [SID363999029]
- mean correlation with KSR1 profile: 0.419

GCSH [SID363995462]
- mean correlation with KSR1 profile: -0.157

PRDX2 [SID363996687]
- mean correlation with KSR1 profile: 0.217

ZDHHC5 [SID364005334]
- mean correlation with KSR1 profile: 0.57

PGBD5 [SID364002868]
- mean correlation with KSR1 profile: 0.441

NOL3 [SID363995001]
- mean correlation with KSR1 profile: 0.101

NPTN [SID363998311]
- mean correlation with KSR1 profile: -0.484

TECTB [SID364004471]
- mean correlation with KSR1 profile: -0.205

3 entries from above in another layout:
Gene,PubChem SID,mean correlation with KSR1 profile
NPFFR1,SID364002372,0.26
SLC16A8,SID363998464,-0.3
ZKSCAN1,SID364005318,-0.372
